Results from patent publication US20090143417A1, “METHODS OF TREATING PAIN” (The University of Queensland, priority 2004, published 2009).
Some of these results come from one statement about several compounds together.

Tested on: naïve rats
Details: single s.c. bolus administered alone: 2 at 0.04 nmol/kg, morphine at 2.8 μmol/kg

Work on `CN1CC[C@]23c4c5ccc(O)c4O[C@H]2[C@@H](O)C=C[C@H]3[C@H]1C5` [morphine] yielded a duration of action of 1.5 to 2 h.
